## Results of single-concentration screens

Sequences of proteins named here, by UniProt entry; tags and fusion partners are left off. Residues count along the entry.
UniProt P9WPC5, whole entry: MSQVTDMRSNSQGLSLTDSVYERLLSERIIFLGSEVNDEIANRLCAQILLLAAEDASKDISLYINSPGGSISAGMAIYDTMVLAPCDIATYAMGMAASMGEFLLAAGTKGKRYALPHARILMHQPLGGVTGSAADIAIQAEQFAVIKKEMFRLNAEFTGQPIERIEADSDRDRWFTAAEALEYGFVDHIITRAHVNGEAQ
UniProt P9WPC3, whole entry partner: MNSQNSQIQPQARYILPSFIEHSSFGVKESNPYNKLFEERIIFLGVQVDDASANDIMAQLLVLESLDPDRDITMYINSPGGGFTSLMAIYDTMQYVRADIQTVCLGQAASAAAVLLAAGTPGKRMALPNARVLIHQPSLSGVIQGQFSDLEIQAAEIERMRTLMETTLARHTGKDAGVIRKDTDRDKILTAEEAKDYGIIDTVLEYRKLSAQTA
UniProt Q4DA54, 1-478: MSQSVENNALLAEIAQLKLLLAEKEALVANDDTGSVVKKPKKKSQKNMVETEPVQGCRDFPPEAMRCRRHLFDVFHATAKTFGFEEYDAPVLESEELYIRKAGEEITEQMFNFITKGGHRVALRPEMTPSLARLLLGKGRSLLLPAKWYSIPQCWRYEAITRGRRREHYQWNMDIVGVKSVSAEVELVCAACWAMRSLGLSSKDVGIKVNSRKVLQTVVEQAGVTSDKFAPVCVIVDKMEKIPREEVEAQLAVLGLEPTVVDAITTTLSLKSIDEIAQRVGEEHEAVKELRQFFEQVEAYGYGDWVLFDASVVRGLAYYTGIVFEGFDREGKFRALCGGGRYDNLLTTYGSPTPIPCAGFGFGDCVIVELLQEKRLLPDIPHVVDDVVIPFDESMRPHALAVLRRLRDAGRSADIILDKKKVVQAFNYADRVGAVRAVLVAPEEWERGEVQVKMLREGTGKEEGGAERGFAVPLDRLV
UniProt Q8IDJ8, 1-583: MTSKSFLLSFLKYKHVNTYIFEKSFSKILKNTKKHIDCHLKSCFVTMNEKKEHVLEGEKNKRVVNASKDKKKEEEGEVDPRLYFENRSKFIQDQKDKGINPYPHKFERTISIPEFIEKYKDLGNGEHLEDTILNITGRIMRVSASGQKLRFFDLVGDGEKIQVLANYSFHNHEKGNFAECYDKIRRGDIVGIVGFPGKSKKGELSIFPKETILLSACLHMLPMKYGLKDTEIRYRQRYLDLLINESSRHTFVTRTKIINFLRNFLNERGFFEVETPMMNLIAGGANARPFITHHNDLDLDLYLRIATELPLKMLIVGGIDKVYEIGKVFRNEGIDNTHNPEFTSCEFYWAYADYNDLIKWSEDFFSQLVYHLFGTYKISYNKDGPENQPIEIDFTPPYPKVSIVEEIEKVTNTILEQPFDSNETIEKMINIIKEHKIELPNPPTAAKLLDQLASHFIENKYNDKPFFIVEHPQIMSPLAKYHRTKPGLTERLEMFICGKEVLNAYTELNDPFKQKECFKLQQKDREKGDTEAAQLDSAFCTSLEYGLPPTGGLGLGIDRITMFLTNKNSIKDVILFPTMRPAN
UniProt P9WNZ1, whole entry: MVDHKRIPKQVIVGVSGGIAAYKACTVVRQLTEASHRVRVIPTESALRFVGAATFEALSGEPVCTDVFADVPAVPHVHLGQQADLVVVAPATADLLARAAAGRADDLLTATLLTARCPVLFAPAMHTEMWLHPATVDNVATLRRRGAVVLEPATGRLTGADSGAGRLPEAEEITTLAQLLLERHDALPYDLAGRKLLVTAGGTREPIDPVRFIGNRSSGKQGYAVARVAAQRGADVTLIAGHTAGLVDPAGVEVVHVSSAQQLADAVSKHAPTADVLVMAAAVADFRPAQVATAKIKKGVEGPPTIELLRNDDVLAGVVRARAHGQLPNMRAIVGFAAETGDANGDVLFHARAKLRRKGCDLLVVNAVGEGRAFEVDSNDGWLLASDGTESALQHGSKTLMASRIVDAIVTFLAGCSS
UniProt I6X8D2, whole entry: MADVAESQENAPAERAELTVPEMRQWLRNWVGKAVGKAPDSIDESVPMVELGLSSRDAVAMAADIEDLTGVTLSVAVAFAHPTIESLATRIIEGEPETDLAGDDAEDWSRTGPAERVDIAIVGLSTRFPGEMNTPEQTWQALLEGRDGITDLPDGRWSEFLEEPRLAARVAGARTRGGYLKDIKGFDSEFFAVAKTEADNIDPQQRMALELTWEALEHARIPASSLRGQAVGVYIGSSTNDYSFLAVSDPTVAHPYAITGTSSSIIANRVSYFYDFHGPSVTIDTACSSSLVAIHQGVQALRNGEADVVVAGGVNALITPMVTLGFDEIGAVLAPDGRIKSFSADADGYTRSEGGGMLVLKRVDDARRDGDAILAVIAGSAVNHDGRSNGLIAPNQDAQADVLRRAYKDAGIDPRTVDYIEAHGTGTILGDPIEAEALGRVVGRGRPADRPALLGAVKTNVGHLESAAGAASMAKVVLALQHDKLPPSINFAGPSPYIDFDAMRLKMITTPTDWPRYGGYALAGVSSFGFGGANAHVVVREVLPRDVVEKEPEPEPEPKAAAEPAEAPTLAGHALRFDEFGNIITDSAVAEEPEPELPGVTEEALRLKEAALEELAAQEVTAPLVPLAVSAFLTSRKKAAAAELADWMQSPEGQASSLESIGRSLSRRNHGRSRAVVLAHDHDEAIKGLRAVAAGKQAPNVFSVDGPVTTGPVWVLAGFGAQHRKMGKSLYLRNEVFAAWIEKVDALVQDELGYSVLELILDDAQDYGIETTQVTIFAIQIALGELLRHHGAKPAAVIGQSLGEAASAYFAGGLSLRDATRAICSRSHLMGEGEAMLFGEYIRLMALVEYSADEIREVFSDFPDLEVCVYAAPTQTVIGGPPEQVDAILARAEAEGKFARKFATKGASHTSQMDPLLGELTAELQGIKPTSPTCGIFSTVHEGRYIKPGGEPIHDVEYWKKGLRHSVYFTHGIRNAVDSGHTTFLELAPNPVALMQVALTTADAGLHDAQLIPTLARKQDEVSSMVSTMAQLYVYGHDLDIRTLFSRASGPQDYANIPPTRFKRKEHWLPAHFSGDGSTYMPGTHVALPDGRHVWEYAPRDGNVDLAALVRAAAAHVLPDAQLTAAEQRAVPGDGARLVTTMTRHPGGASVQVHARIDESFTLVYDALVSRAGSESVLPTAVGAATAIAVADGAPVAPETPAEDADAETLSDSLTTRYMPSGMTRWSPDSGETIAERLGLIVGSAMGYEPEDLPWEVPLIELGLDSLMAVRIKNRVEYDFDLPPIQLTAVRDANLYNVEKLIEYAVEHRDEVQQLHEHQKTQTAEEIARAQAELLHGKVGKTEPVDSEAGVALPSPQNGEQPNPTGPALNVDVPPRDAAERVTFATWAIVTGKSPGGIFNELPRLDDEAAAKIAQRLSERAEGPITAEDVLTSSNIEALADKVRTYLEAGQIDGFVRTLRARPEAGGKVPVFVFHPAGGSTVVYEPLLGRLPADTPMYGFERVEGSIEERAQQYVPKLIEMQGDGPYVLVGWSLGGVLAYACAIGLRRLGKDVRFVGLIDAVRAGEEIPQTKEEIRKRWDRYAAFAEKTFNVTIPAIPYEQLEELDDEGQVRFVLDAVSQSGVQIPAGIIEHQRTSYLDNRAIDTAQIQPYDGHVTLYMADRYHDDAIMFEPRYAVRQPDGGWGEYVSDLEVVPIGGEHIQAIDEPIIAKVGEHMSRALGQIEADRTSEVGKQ

Each number is a percent effect as filed. The record does not define 0% and 100%; most values in the screen are far below 50% and negative numbers occur (in some assays of this library far below -100). The compounds are a random part of those screened. Two or more numbers in one place are separate tests of the same structure; such repeats can differ widely. A dash means the value is not listed here; it may have been measured.

ClpP1P2: 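ClpP1P2, Mycobacterium tuberculosis (UniProt P9WPC5 and UniProt P9WPC3). Protease assay of ClpP1P2, read by the AMC dye that it sets free. Tested at 50 µM. Higher reads as stronger inhibition, judged from the few compounds that gave an IC50. Most other retested compounds had strongly negative values. Of about 69,000 compounds tested this way, about 10 (0.015%) reached 50% or more in at least one test.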
TcHisRS: 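Enzyme assay of histidyl-tRNA synthetase; the read-out is not stated. Target: Histidine-tRNA ligase, Trypanosoma cruzi CL Brener (UniProt Q4DA54). Tested at 30 µM. Direction is inferred from retests: higher values go with stronger inhibition. Size under these conditions: about 69,000 compounds, about 31 of them at 50% or above in at least one test.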
PfKRS1: 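Lysine-tRNA ligase, Plasmodium falciparum 3D7 (UniProt Q8IDJ8). Enzyme assay of the cytosolic lysyl-tRNA synthetase in 384-well plates, read by luminescence. Compounds at 30 µM. Higher reads as stronger inhibition, judged from the few compounds that gave an IC50. Size under these conditions: about 69,000 compounds, about 49 of them at 50% or above in at least one test.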
CoaBC: 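Coenzyme A biosynthesis protein CoaBC, Mycobacterium tuberculosis (UniProt P9WNZ1). Enzyme assay of CoaBC with a phosphate dye (Biomol Green) read at 650 nm. Compounds at 30 µM. Direction is inferred from only a few compounds that gave an IC50; most scored high, so higher reads as stronger inhibition. Most strong results did not repeat in a second test. Of about 67,000 compounds tested this way, about 40 (0.06%) reached 50% or more in at least one test.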
Leishmania in macrophages: 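Cell assay of Leishmania donovani living inside macrophages; the read-out is not stated. Compounds at 30 µM. Higher reads as stronger inhibition (inferred: compounds with an IC50 in retests scored well above the rest). Of about 69,000 compounds tested this way, about 1,000 (1.5%) reached 50% or more in at least one test.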
Pks13 thioesterase: 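Enzyme assay of the thioesterase domain of polyketide synthase 13; the read-out is not stated. Target: Polyketide synthase Pks13, Mycobacterium tuberculosis (UniProt I6X8D2). Concentration: 30 µM. The record gives no direction; the compounds picked for IC50 retests had high values, so higher reads as stronger inhibition. About 67,000 compounds were tested under these conditions; 0.46% (about 300) showed 50% or more at least once.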

Compound,ClpP1P2,TcHisRS,PfKRS1,CoaBC,Leishmania in macrophages,Pks13 thioesterase
COc1ccc(C(C(=O)O)N2CCN(C3CCCCC3)CC2)cc1OC (stereo not shown),9.452%,2.174%,2.269%,4.637%,-10.32%,-20.72%
Cn1cc(CN2CC[C@H]3O[C@@H](C(=O)NC4CC4)CC[C@H]32)cn1,-15.25%,3.96%,3.495%,-1.794%,-,-1.59%
CCc1ncc(C(=O)N2CCN(C(=O)COc3ccccc3)CC2)cn1,-8.52%,1.064%,2.06%,8.894%,32.48%,-33.42%
COc1cncc(-n2nc(C)c(CC(C)=O)c2C)c1,-15.53%,2.155%,4.975%,3.676%,9.707%,-11.83%
CN(C)CCN1CCN(Cc2cccc(C#N)c2)Cc2cccnc21.O=C(O)C(F)(F)F.O=C(O)C(F)(F)F.O=C(O)C(F)(F)F,-,-,-,-,-3.538%,-
O=C(NC1CC1)c1ccc(SCc2cscn2)cc1,11.02%,1.064%,0.9666%,0%,-9.152%,-12.98%
[H][C@@]12CCN(CC3CC3)C[C@@]1([H])[C@H](C(=O)N1CCCC1)CCO2,-,-,-,-,15.97%,-
COc1ccc(C(C#N)NC(=O)Cc2ccc(F)c(F)c2)c(OC)c1 (stereo not shown),2.431%,4.762%,0.5848%,5.165%,-51.17%,-26.09%
Cc1occc1C(=O)N1CCC2(CCN(Cc3nccs3)C2)CC1.O=C(O)C(F)(F)F,-,-,-,-,27.57%,-
COc1cccc(C(=O)Nc2cc(CC(C)C)nn2C)c1,-1.818%,1.527%,-1.101%,-2.169%,38.08%,-12.84%
CNS(=O)(=O)c1ccc(CNC(=O)c2cccc(C)n2)cc1,8.552%,0%,-0.5052%,-0.3871%,4.129%,-16.84%
c1cc(-c2c[nH]c([C@@H]3COCCN3Cc3csnn3)n2)ccn1,-7.442%,3.483%,0.04954%,0.9823%,-12.44%,31.11%
O=C(Nc1nc(-c2ccccc2)ns1)N1CCN(C(=O)C2CC2)CC1,-7.476%,4.348%,0.246%,-2.804%,9.214%,-14%
CC(NCc1ccc(C(C)(C)C)cc1)c1ccc(S(C)(=O)=O)cc1 (stereo not shown),-6.5%,3.158%,4.147%,5.578%,16.02%,-10.66%
O=C(O)C(F)(F)F.[H][C@@]12CO[C@@H](CNS(C)(=O)=O)[C@]1([H])CCN(Cc1ccsc1)C2,-,-,-,-,-10.89%,-
CC(NCC1CCN(CCO)CC1)c1cccc(Cl)c1 (stereo not shown),-7.506%,3.279%,2.164%,-29.1%,73.65%,-23.89%
O=C1CC2(CCN(CCO)C2)CN1c1cccc(F)c1 (stereo not shown),-2.816%,4.348%,-2.386%,4.206%,-,-27.13%
Cc1cccc2c1OCCCC2NCc1nnc2n1CCCCC2 (stereo not shown),6.77%,7.407%,2.273%,-1.775%,7.219%,-14.37%
CC(=O)N[C@@H]1CN(C(=O)c2cccc(C(F)(F)F)c2)C[C@H]1O,-2.59%,1.13%,0.859%,-12.11%,-26.21%,-1.774%
Cc1cccc(-c2nc(C)nn2CN2CCN(c3ncccn3)CC2)c1,-5.005%,9.524%,0.516%,-4.339%,-1.212%,2.232%
[H][C@]12CN(c3ccccn3)CCN1C[C@H](c1ccccc1)[C@H]2CO,-,-,-,-,-10.67%,-
NC(=O)C1CCN(CCCNC(=O)Nc2nncs2)CC1,1.429%,3.483%,-5.381%,3.137%,-36.83%,1.889%
O=C(c1csnn1)N1CCc2ccccc21,8.245%,12.05%,0.1454%,2.97%,-9.49%,3.355%
O=C1CCC2(CCCN(CCn3cc(Cl)cn3)C2)CN1C1CCCC1 (stereo not shown),-16.77%,5.473%,-2.141%,7.403%,-66.47%,7.004%
Cc1cc(CS(=O)(=O)N(C)C(C)c2ccc(F)cc2)on1 (stereo not shown),0.8947%,-53.54%,4.979%,-8.104%,10.59%,-24.26%
CC(C)C(Sc1nncn1C1CC1)C(=O)NCc1cccnc1 (stereo not shown),-6.295%,2.874%,0.357%,6.323%,14.5%,-6.841%
CCNC(=O)NC(=O)C(C)N(C)CCOc1ccccc1C (stereo not shown),-11.21%,7.229%,11.03%,0%,30.41% & 18.7%,-0.4787%
COc1cccc(N2CC3(CCN(c4cc(OC)ncn4)C3)CC2=O)c1 (stereo not shown),18.33%,4.301%,-0.6629%,1.053%,31.3% & 22.28%,-35.9%
O=S(=O)(Cc1ccc(F)cc1)NCc1ccco1,-5.154%,-1.058%,3.735%,1.381%,18.91%,-25.41%
COc1ccc(NC(=O)c2ccco2)c(N2CCN(C(C)=O)CC2)n1,1.306%,1.724%,3.014%,2.778%,24.7%,-7.763%
Cc1cnn(CC2CCCN2Cc2nccn2C)c1 (stereo not shown),-0.004726%,3.383%,-6.823%,7.311%,-15.36%,-0.1442%
CCc1cnccc1C(=O)NC1CCN(C(=O)OC)CC1,-1.047%,4.95%,-2.846%,7.039%,7.325%,-9.533%
Cc1occc1C(=O)N1C[C@@H]2CCCO[C@@H]2[C@H](NC(=O)CC2CC2)C1,-13.06%,9.945%,2.808%,2.228%,-,-0.9229%

2 of the entries, repeated:

Compound	ClpP1P2	TcHisRS	PfKRS1	CoaBC	Leishmania in macrophages	Pks13 thioesterase
COc1cncc(-n2nc(C)c(CC(C)=O)c2C)c1	-15.53%	2.155%	4.975%	3.676%	9.707%	-11.83%
Cc1cccc(-c2nc(C)nn2CN2CCN(c3ncccn3)CC2)c1	-5.005%	9.524%	0.516%	-4.339%	-1.212%	2.232%

Measurements from “University of Dundee, Small-Polar-MMV Screening Library” (2021), ChEMBL document CHEMBL3988442.